The target in the assay is T1, Nucleus accumbens-associated protein 1 (NAC1), endogenous (human (endogenous in HeLa, ovarian cancer cell lines and HEK293T)) (UniProt Q96RE7).
T1 sequence: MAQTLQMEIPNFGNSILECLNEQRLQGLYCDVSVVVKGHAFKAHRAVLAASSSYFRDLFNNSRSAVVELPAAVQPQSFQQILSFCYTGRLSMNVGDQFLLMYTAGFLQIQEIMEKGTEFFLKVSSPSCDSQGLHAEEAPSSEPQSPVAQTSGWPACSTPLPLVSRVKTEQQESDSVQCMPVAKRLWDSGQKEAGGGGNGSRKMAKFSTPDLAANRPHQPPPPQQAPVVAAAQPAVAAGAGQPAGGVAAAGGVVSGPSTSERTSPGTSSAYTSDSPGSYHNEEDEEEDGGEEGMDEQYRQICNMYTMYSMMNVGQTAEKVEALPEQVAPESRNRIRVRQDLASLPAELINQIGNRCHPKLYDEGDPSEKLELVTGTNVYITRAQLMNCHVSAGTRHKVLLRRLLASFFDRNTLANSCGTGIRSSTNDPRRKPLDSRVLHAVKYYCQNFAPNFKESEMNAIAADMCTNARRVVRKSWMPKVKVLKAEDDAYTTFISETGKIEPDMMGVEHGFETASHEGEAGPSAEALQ
The experiment in a line: co-IP; FLAG-tagged wild-type or truncated CARM1 expressed in HEK293T cells, immunoprecipitated with anti-NAC1 antibody (endogenous NAC1), Western blotting. In general terms: A western blot detects proteins with antibodies after separation by electrophoresis.

By UniProt entry, the sequences of proteins in these tests, tags left out. Where a name states a change or a piece, a line headed by the entry shows the natural chain unless it says otherwise.
UniProt Q86X55: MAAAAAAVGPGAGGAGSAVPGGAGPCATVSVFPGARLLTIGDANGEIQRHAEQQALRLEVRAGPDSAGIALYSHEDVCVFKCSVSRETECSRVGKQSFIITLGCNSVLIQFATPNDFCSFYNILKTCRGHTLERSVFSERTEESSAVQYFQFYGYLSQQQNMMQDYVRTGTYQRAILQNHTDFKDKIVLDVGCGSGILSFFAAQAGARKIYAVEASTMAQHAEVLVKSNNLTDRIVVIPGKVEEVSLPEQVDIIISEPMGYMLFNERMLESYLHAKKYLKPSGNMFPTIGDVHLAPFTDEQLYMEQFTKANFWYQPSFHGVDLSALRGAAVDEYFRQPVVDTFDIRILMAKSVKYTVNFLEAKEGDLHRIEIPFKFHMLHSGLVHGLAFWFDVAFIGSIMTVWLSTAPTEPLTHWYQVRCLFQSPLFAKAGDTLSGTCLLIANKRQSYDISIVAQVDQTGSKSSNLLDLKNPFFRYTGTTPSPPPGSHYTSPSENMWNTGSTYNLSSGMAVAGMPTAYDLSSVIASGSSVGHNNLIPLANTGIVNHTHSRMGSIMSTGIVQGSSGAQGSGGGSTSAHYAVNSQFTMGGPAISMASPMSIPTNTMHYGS

These are yes or no findings as the source states them, for the method shown. Binding seen in cells or lysates may run through a third protein. A result given as binding can be weak or reduced; the word gives no strength.

With “FLAG-tagged CARM1-D3 (residues 135-608, lacking the amino-terminal domain) (from UniProt Q86X55) (domain or fragment)”, the binding entry was “binds”.

These data come from article PMC6033357.
